From article PMC11591752, “Novel Inhibitory Actions of Neuroactive Steroid [3α,5α]-3-Hydroxypregnan-20-One on Toll-like Receptor 4-Dependent Neuroimmune Signaling” (Biomolecules, 2024)
These are yes or no findings as the source states them, for the method shown. Binding seen in cells or lysates may run through a third protein. Binding can be weak; no strength is given.

Target: T1, Toll-like receptor 4 (TLR4) (rat (endogenous in P rat hippocampus)) (UniProt Q9QX05)
T1 sequence: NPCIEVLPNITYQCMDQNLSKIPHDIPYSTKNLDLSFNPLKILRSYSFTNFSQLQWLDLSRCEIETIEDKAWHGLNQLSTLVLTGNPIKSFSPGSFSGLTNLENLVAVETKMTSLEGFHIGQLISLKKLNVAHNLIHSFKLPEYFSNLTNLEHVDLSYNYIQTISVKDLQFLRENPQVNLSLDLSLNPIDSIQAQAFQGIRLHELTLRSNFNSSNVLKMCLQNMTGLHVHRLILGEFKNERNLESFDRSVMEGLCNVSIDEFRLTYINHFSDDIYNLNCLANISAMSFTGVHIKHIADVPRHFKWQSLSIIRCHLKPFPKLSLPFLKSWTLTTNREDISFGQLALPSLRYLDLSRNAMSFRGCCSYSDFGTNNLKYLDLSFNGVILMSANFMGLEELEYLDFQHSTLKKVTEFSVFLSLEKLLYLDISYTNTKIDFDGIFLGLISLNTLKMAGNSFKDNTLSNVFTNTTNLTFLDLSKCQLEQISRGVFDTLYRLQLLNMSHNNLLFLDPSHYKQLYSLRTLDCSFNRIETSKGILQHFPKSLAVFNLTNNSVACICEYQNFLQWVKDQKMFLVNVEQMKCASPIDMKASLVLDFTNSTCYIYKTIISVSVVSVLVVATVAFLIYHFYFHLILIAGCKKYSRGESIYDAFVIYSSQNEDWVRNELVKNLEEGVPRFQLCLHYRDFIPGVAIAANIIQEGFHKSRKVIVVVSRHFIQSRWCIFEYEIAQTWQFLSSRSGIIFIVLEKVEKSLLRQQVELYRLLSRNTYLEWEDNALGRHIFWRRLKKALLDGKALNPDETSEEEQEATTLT
Assay: co-IP; TLR4 antibody (6 µg, Santa Cruz SC-25) on hippocampal lysate of male and female P rats, Protein G agarose, immunoblot for MD-2; animals treated with vehicle or 3α,5α-THP (15 mg/kg, 30 min) before

## myeloid differentiation factor 2 (MD-2) (rat (endogenous in P rat hippocampus))
  binding: binds
